Results taken from PMC2065866.

Target: second bromodomain of Brd2 (Brd2 BD2), His-tagged (human)
Test: NMR titration; 15N-labelled Brd2 BD2 or mutant (0.2-1.0 mM) titrated with peptide (stocks 55-100 mM); 1H-15N HSQC at 298 K; 50 mM phosphate pH 5.8, 50 mM NaCl, 1 mM DTT, 1 mM EDTA; both purified

B1: H2B-AcK5 peptide (residues 1-12 of histone H2B, acetylated at Lys 5) (peptide)
peptide: SDPAKSAPAPKK
modifications: N-epsilon-acetyl-lysine at Lys 5
binding: no binding

No constants are given. Whether binding was seen depends on the method and setting. Sequences can lack the tags named with a protein.
